{
  "source": "patent US20200397756A1",
  "about": "“A STABLE PHARMACEUTICAL COMPOSITION OF POORLY SOLUBLE NONSTEROIDAL ANTIANDROGENS” (KASHIV BIOSCIENCES, LLC, priority 2018, published 2020)",
  "origin": "cited, not measured here",
  "details": "at relevant pH range",
  "note": "Some entries share one result that the patent states for a list of compounds.",
  "data": [
    {"smiles": "CNC(=O)c1ccc(N2C(=S)N(c3ccc(C#N)c(C(F)(F)F)c3)C(=O)C2(C)C)cc1F", "note": "[Enzalutamide, 4-{3-[4-cyano-3-(trifluoromethyl)phenyl]-5,5-dimethyl-4-oxo-2-sulfanylideneimidazolidin-1-yl}-2-fluoro-N-methylbenzamide]", "values": [
      {"measurement": "aqueous solubility", "value": "≤ 2.0", "unit": "µg/mL"}
    ]},
    {"smiles": "CNC(=O)c1ccc(N2C(=S)N(c3cnc(C#N)c(C(F)(F)F)c3)C(=O)C23CCC3)cc1F", "note": "[apalutamide, 4-(7-(6-Cyano-5-(trifluoromethyl)pyridin-3-yl)-8-oxo-6-thioxo-5,7-diazaspiro(3.4)octan-5-yl)-2-fluoro-N-methylbenzamide]", "values": [
      {"measurement": "aqueous solubility", "value": "≤ 2.0", "unit": "µg/mL"}
    ]}
  ]
}
